The record followed here is patent CN108503707A.

Chains of the proteins cited; added tags and fusions are not shown. Residues count along the entry.
UniProt P13664, residues 48-306: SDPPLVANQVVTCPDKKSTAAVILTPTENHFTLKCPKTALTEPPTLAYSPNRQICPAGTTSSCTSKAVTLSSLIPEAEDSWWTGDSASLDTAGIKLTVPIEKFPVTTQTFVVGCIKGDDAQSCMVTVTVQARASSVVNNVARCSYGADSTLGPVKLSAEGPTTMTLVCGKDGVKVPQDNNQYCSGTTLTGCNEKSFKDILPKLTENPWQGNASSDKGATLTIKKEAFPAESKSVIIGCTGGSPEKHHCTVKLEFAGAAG

The target in the assay is 弓形虫重组SAG1蛋白(表面膜抗原1) (Toxoplasma gondii) (UniProt P13664). The assay can be described thus: phage ELISA screen on coated SAG1.

No constants are given. Whether binding was seen depends on the method and setting. Some entries that bind do so weakly or less than the wild type.

B1: 1号克隆株抗SAG1纳米抗体 (VHH)
VHH: HVQLVESGGGSVQAGGSLKLSCTASGYTSNNNCMAWYRQAPGKEPEGVAGIDSEGTTRYADSVKGRFTISKDNAKNTLYLQMNSLKPEDTGMYYCGAGPDRPARCQYDVWGQGTQVTVSS
Turning to B1, the binding result is “binds”.
